Values from PubChem BioAssay AID1259308 (NCATS, 2017).
Assay: 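Knock-downs that increase output of a recombinant reporter protein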 (primary screen). Cell system: human HEK293 embryonic kidney cells stably expressing firefly luciferase (HEK-CMV-Luc2-Hygro). Knock-down reagent: single siRNA against human genes, 0.8 pmol siRNA per well. Time to read-out: 72 h. Detection: 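Reporter luminescence and viable-cell signal on separate replicate plates, given as percent of non-targeting control and median/MAD z-scores, plus per-cell luciferase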. Direction: total luciferase, z-score: higher = more reporter protein produced. Active means: 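Active when the median/MAD z-score for overall luciferase is greater than 3; a gene was taken forward for validation with new siRNAs if at least two of its three siRNAs passed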. Meaning of the calls: active = raised luciferase; inactive = no rise.
In all, the deposit lists about 59,000 reagents; this is a part drawn at random. Over the whole deposit, about 1,510 (2.6%) were called active. 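Calls use total luciferase alone and ignore viability, so some active siRNAs may act by altering cell number.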 Unmarked entries are inactive. The numbers tell different reagents against one gene apart. Further read-outs or replicates are left out here.

| total luciferase, z-score | Target gene | siRNA no. |
| --- | --- | --- |
| -0.617 | CDC5L | 1 |
| 3.94 (active) | CDC5L | 2 |
| 1.72 | CDC5L | 3 |
| 0.754 | PABPC4L | 1 |
| -0.359 | PABPC4L | 2 |
| -0.315 | PABPC4L | 3 |
| -0.215 | KDSR | 1 |
| -1.34 | KDSR | 2 |
| 1.17 | KDSR | 3 |
| -0.796 | ZBTB33 | 1 |
| 0.0936 | ZBTB33 | 2 |
| 0.819 | ZBTB33 | 3 |
| -0.711 | AKIRIN1 | 1 |
| 0.318 | AKIRIN1 | 2 |
| 0.606 | AKIRIN1 | 3 |
| 0.263 | NLRP10 | 1 |
| -1.93 | NLRP10 | 2 |
| 1.14 | NLRP10 | 3 |
| -0.726 | DHX9-AS1 | 1 |
| -1.38 | DHX9-AS1 | 2 |
| -1.24 | DHX9-AS1 | 3 |
| 0.185 | ELOA3P | 1 |
| 0.642 | ELOA3P | 2 |
| 4.87 (active) | ELOA3P | 3 |
| -0.3 | ZFP90 | 1 |
| 1.41 | ZFP90 | 2 |
| -1.14 | ZFP90 | 3 |
| 0.366 | MKRN1 | 1 |
| -0.105 | MKRN1 | 2 |
| -0.616 | MKRN1 | 3 |
| 2.12 | BAG3 | 1 |
| -0.0148 | BAG3 | 2 |
| -0.391 | BAG3 | 3 |
| 0.241 | XIRP2 | 1 |
| 1.25 | XIRP2 | 2 |
| -1.58 | XIRP2 | 3 |
| -1.54 | NORAD | 1 |
| 2.41 | NORAD | 2 |
| 0.758 | NORAD | 3 |
| 2.75 | KRT12 | 1 |
| 0.553 | KRT12 | 2 |
| -0.105 | KRT12 | 3 |
| -0.393 | SMIM23 | 1 |
| 0.805 | SMIM23 | 2 |
| 1.29 | SMIM23 | 3 |
| 0.0658 | ACSBG1 | 1 |
| 0.361 | ACSBG1 | 2 |
| -0.353 | ACSBG1 | 3 |
| -0.592 | KANSL1 | 1 |
| 0.438 | KANSL1 | 2 |
| -0.574 | KANSL1 | 3 |
| 2.68 | CASP4 | 1 |
| -0.0406 | CASP4 | 2 |
| -1.17 | CASP4 | 3 |
| -1.82 | OSBPL2 | 1 |
| -0.126 | OSBPL2 | 2 |
| -0.692 | OSBPL2 | 3 |

Entries above called active (2):
| total luciferase, z-score | Target gene | siRNA no. |
| --- | --- | --- |
| 3.94 (active) | CDC5L | 2 |
| 4.87 (active) | ELOA3P | 3 |
